Experiment [1] deals with H727 lung cancer cell lines (G12V K-Ras mutation). Put plainly: Inhibition of cancer cell proliferation (CellTiter-Glo). The format is cell-based. As to conditions: read-out: Cell proliferation activity (H727 cancer cell line proliferation IC50), H727 cells, 3 days treatment, tested form: trifluoroacetate. As for the experimental part:
Compounds of the present invention were measured for their ability to kill H727 lung cancer cell lines, which contain a G12V K-Ras mutation. Cell proliferation experiments were conducted in 96-well plates. Cells were plated at 1000 cells/well, incubated overnight, followed by treatment with a dose range of compound for 3 days at 37° C. Cell proliferation was assessed using a CellTiter-Glo assay (Promega) according to the manufacturer's protocol. Data were normalized to DMSO control. IC50 values were determined using a four-parameter dose-response (variable slope) equation. These assays are performed in a manner analogous to the assay disclosed in: Burns, M. C.; Sun, Q.; Daniels, R. N.; Camper, D. V.; Kennedy, J. P.; Phan, J.; Olejniczak, E. O.; Lee, T.; Waterson, A. G.; Rossanese, O. W.; Fesik, S. W. “Approach for targeting Ras with small molecules that activate SOS-mediated nucleotide exchange” Proc. Natl. Acad. Sci. 2014; 11(9): 3401-3406. PMCID: PMC3948241.
(Cellular ATP, detected with luciferase, serves as a proxy for viable cell number.)

Amino acid sequences for entries named in this document (tags omitted). Residues count along the entry.
UniProt Q07889, 564-1049 limits assumed: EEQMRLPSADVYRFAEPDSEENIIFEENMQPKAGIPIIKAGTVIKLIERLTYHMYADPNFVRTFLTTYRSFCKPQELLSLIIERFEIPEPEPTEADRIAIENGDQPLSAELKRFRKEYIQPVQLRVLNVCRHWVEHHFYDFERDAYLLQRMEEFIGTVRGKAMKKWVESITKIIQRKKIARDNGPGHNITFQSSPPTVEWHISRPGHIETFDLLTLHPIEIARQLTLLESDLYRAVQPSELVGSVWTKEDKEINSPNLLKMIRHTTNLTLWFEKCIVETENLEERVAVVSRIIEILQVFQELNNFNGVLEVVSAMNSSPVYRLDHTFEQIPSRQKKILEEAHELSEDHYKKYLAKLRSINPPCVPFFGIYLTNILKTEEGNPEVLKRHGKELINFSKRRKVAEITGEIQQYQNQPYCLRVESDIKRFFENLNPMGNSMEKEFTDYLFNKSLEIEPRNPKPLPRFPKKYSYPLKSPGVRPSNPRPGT
UniProt P01112, 1-166 partner limits assumed: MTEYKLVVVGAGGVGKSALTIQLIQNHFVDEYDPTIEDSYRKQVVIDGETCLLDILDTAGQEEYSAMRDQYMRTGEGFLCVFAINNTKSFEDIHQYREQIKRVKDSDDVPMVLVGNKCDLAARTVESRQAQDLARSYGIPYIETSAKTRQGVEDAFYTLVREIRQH

Experiment [2] deals with Ras GEF SOS (Son of Sevenless) (Homo sapiens, UniProt Q07889). Put plainly: SOS-mediated nucleotide exchange on Ras (BODIPY-GDP fluorescence). As to conditions: read-out: Nucleotide exchange activity (nucleotide exchange EC50); SOS-mediated exchange of BODIPY-GDP for GTP on Ras; tested form: trifluoroacetate. The format is biochemical.

Structures were worked out from names or drawings and are uncertain.

Broadly, the EC50 is the concentration needed to bring the measured effect to its halfway point.

In the case of `Fc1ccc(Cn2c(N3CCNCC3)nc3c(-c4ccccc4F)cccc32)cc1Cl`, the IC50 in experiment [1] lay within 5 to 20 µM. Moreover, in experiment [2], the half-maximal effective concentration (EC50) was 1000 to 5000 nM.

(Values after patent publication US10501421B1, “Substituted benzimidazoles as modulators of Ras signaling” (VANDERBILT UNIVERSITY, priority 2017, dated 2019).)
